PubChem BioAssay AID504791, Drosophila RNAi Screening Center – 2011
The deposit covers about 23,000 reagents; below is an unselected part of those that have a named target and a result. Of all reagents, 199 (0.86%) are marked active. 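Plate-scaled ratios behind the calls are not deposited; printed light signals are raw; many rows marked increased or decreased are still called inactive.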 The record does not give: the direction of the score.

Purpose: 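Genes of the fly required for silencing by miRNA, siRNA or endo-siRNA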 (primary screen)
Cell system: Drosophila S2-derived reporter cells
Knock-down reagent: long dsRNA against Drosophila genes, about 150-250 ng dsRNA per well (siRNA assay); about 80-120 ng (miRNA assay)
Time to read-out: about 5 days (siRNA assay); about 4 days (miRNA assay)
Challenge: copper sulfate induction of reporters: 25 µM (siRNA assay); 200 mM stated (miRNA assay), 1-2 days before reading
Measured: 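Dual luciferase assay: Renilla to firefly signal ratio in each well, scaled to the mean ratio of its plate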
Call rule: 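a well was a first-pass pick when its plate-scaled ratio rose above 1.5 (siRNA assay) or 1.6 (miRNA assay), or dropped below 0.6; a gene counted only if two separate dsRNAs agreed on retest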

predicted target,dsRNA,miRNA reporter change,"stable assay Renilla, run 1 (luminescence)","stable assay firefly, run 1 (luminescence)",call
CG30148,DRSC06391,,3827,3.65e5,inactive
spi,DRSC03618,,7102,3.41e5,inactive
CG13042,DRSC09923,,6743,4.17e5,inactive
Dop1R2,DRSC13958,,5147,3.67e5,inactive
Dop1R2,DRSC15379,,5784,3.39e5,inactive
Ser6,DRSC20574,,5275,2.79e5,inactive
CG15535,DRSC15071,,6723,4.54e5,inactive
CG12213,DRSC14478,,4870,3.69e5,inactive
CG12213,DRSC22109,,8462,5.74e5,inactive
aub,DRSC03486,,2.18e5,1.28e6,inactive
CRAT,DRSC12523,,6647,3.89e5,inactive
CG16734,DRSC15143,,6815,4.41e5,inactive
CG33061,DRSC09938,,7015,3.81e5,inactive
CG33061,DRSC22897,,3263,3.31e5,inactive
CG14947,DRSC02429,,7631,4.01e5,inactive
CG15877,DRSC08485,,6472,3.90e5,inactive
CG1640,DRSC19750,,6463,3.29e5,inactive
gudu,DRSC02820,,6914,4.07e5,inactive
grau,DRSC04691,,6610,4.01e5,inactive
CG31233,DRSC15888,,6368,3.37e5,inactive
CG4627,DRSC06873,,6595,3.16e5,inactive
Cyp4ad1,DRSC07369,,8597,3.63e5,inactive
Idgf4,DRSC18675,,4879,3.12e5,inactive
CG31404,DRSC15497,,7152,3.12e5,inactive
Nepl14,DRSC15631,,7783,3.55e5,inactive
Nepl20,DRSC14878,,5955,3.41e5,inactive
CG15912,DRSC18105,,6362,2.89e5,inactive
Tao,DRSC19573,,4711,5.31e5,inactive
Tao,DRSC19574,,7218,7.58e5,inactive
Tao,DRSC22639,,3680,4.25e5,inactive
SamDC,DRSC03429,,31130,5.79e5,inactive
mRpL14,DRSC18597,,5343,3.46e5,inactive
Gapdh1,DRSC07433,,6715,4.43e5,inactive
CG42673,DRSC08989,,5247,3.39e5,inactive
CG42673,DRSC08991,,2223,1.80e5,inactive
CG42673,DRSC10177,,4894,3.38e5,inactive
CG42673,DRSC10264,,7580,4.58e5,inactive
CG42673,DRSC10353,,7146,4.14e5,inactive
CG42673,DRSC10354,,6079,4.13e5,inactive
CG15870,DRSC06588,,5567,3.12e5,inactive
CG7785,DRSC16311,,7303,3.20e5,inactive
mRpL51,DRSC02200,,6223,6.28e5,inactive
CHES-1-like,DRSC18447,,6259,3.07e5,inactive
Fit2,DRSC10908,,7302,2.53e5,inactive
CtsB,DRSC19361,,8494,5.02e5,inactive
naz,DRSC14790,,7279,3.11e5,inactive
naz,DRSC16199,,6320,3.44e5,inactive
CG5556,DRSC00687,,4698,4.19e5,inactive
bond,DRSC16135,,8980,3.80e5,inactive
CG18557,DRSC00524,,7767,5.26e5,inactive

11 neighbouring reagents from above, for reference:
predicted target,dsRNA,miRNA reporter change,"stable assay Renilla, run 1 (luminescence)","stable assay firefly, run 1 (luminescence)",call
CG33061,DRSC22897,,3263,3.31e5,inactive
CG14947,DRSC02429,,7631,4.01e5,inactive
CG15877,DRSC08485,,6472,3.90e5,inactive
CG1640,DRSC19750,,6463,3.29e5,inactive
gudu,DRSC02820,,6914,4.07e5,inactive
grau,DRSC04691,,6610,4.01e5,inactive
CG31233,DRSC15888,,6368,3.37e5,inactive
CG4627,DRSC06873,,6595,3.16e5,inactive
Cyp4ad1,DRSC07369,,8597,3.63e5,inactive
Idgf4,DRSC18675,,4879,3.12e5,inactive
CG31404,DRSC15497,,7152,3.12e5,inactive

Continued.
predicted target,dsRNA,miRNA reporter change,"stable assay Renilla, run 1 (luminescence)","stable assay firefly, run 1 (luminescence)",call
NimA,DRSC01353,,6372,5.05e5,inactive
NimA,DRSC22170,,8306,4.38e5,inactive
CG31805,DRSC01563,,4795,3.17e5,inactive
CG9536,DRSC03254,,34222,7.40e5,inactive
CG4704,DRSC15628,,6287,2.93e5,inactive
CG34005,DRSC05700,,7635,6.12e5,inactive
CG5715,DRSC15860,,6832,3.46e5,inactive
psidin,DRSC15660,,7111,3.86e5,inactive
Scsalpha1,DRSC08698,,12046,4.89e5,inactive
CG8861,DRSC12731,,5900,3.58e5,inactive
CG8861,DRSC16449,,6111,4.58e5,inactive
ms(2)34Fe,DRSC01905,,6811,3.41e5,inactive
2mit,DRSC14194,,7258,4.64e5,inactive
2mit,DRSC15224,,7039,4.54e5,inactive
CG9877,DRSC04587,,6674,4.33e5,inactive
pasha,DRSC15295,reporter ratio raised past the hit cutoff,7894,4.17e5,inactive
CG15771,DRSC18077,,5067,3.17e5,inactive
H2.0,DRSC03340,,3927,3.15e5,inactive
H2.0,DRSC22555,,5251,5.32e5,inactive
CG3328,DRSC04357,,68085,1.02e6,inactive
CG1602,DRSC06601,,8353,4.73e5,inactive
CG42735 (retired record),DRSC00921,,5215,3.92e5,inactive
stum,DRSC04268,,8207,4.54e5,inactive
stum,DRSC04270,,8074,5.11e5,inactive
adp,DRSC06916,,8107,2.84e5,inactive
ND-B14.5AL,DRSC11795,,8199,4.44e5,inactive
Vdup1,DRSC08586,,4807,2.99e5,inactive
CG31686 (retired record),DRSC00102,,4087,3.67e5,inactive
Cyp4d20,DRSC08654,,7963,4.32e5,inactive
CG12560,DRSC02174,,7760,4.46e5,inactive
RpLP1,DRSC00783,,10540,6.81e5,inactive
RpLP1,DRSC22145,,8927,8.42e5,inactive
CG14823,DRSC10194,,8546,4.13e5,inactive
